# Reference: PubChem BioAssay AID1347423 (Functional Genomics Laboratory (NCATS/FGL), 2020)
# Among all 52,000 sequences or so, about 210 (0.4%) were called active.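 The calls were made as follows: active = gene whose silencing raises cell survival under the drug, median off-target-corrected z-score across its silencing RNAs 2 or more; inactive = the rest.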 The list shows a part of the results.
# Assay: Resistance to Poly (ADP-Ribose) Polymerase inhibitor: Gene Identification via Genome-wide siRNA Screen
# Settings: mouse BRCA2 R2336H ES cells, olaparib, CellTiter-Glo viability; stronger effect = higher value
# Method in brief: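 Genome-wide siRNA screen (3 siRNAs/gene, 20 nM) in mouse ES cells carrying hypomorphic BRCA2 R2336H; olaparib 500 nM added 48 h post-transfection, CellTiter-Glo viability 72 h later. Normalized to plate-median negative control; MAD z-scores, gene median, seed-adjusted.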
row,Sequence,z-score
1,CCAUUAAUGCAGACACUACTT against Amy2,inactive: 1.29
2,GGAGACUUGCUAAAUGCCCTT against Fkbp7,inactive: 0.135
3,GGCUCGGUACUUAAAGGAUTT against 3300001M20Rik,inactive: -1.31
4,GGCAUUACAGUGUUUCUGCTT against Tgfbr1,inactive: 0.956
5,GGAAGUGAACAAAAUGACUTT against Afp,inactive: 2
6,GGCCUUUGGGACAUGUGUGTT against Olfr552,inactive: 0.095
7,GGUAAGCUAGGUUGCCCACTT against Gabarapl1,inactive: 0.151
8,GGAGAGUGGGAUGCCUAUUTT against Rsl1,inactive: -3.09
9,GGCAGCAUUUAUGGAGUACTT against 2810024B22Rik,inactive: -1.37
10,GCUGCUUAAGUACAUCAGATT against Grm4,inactive: -1.05
11,CGGGACACUUGAAUUGGCUTT against Frmd4a,inactive: -0.555
12,GGCAGUACCAGGUCCAGAATT against Angpt2,inactive: -0.978
13,GAACUUUUUUUCUGUGAACTT against Olfr174,inactive: -1.18
14,GGUCCACUGGAAAUGCUUUTT against F2rl3,inactive: 0.955
15,GGACUUUUGGCACUCUUAUTT against Snx10,inactive: 1.04
16,GGAUGAUUCAGAUGAAGAUTT against 1500031H04Rik,inactive: -2.16
17,GGAUCAGAUGACACAGACUTT against Stk19,inactive: -0.687
18,AUUAGAAGUAAACACGGGATT against Krtap16-9,inactive: -0.0252
19,GGCAAAACCACAAUGAACUTT against D15Ertd785e,inactive: -1.64
20,GCAAUGAGCCAUUAAAGUGTT against 2810405K02Rik,inactive: -0.251
21,GGAAAGCUCUCAAUACCUGTT against Olfr633,inactive: 0.784
22,GCCUUUCAUGCUCCAACAUTT against Olfr995,inactive: -0.408
23,GGUUUGGAUUGGGUAAAGGTT against Apex1,inactive: 0.473
24,GCCACAUCCUAUGUGAUGATT against Olfr1349,inactive: 1.23
25,GGCGAGAAGUGUAACAUUCTT against Fjx1,inactive: -0.247
26,CCGUGAUGGACAUCUAUUCTT against 6530404F10Rik,inactive: -2.2

# 2 entries from above, tab-delimited.
row	Sequence	z-score
6	GGCCUUUGGGACAUGUGUGTT against Olfr552	inactive: 0.095
14	GGUCCACUGGAAAUGCUUUTT against F2rl3	inactive: 0.955

# Next entries:

row,Sequence,z-score
1,GCGAUUUUACGGAUCCGGUTT against Olfr1420,inactive: -0.612
2,GCUAAAAACGACCACAACCTT against Mvd,inactive: 1.35
3,CCACCAUGACUGCAAAUGUTT against Olfr1469,inactive: -1.09
4,GCAUCAUCCAUACGUCUUATT against Ovgp1,inactive: -0.0802
5,GUACCUCUUUUUGUAAUGUTT against Olfr232,inactive: -0.863
6,CGGGCCUAAACCUCUUAAUTT against Rest,inactive: -0.882
7,CCAAAACCUGAACUCACUATT against Fzd5,inactive: -0.921
8,CCUUAUCACAUGUAUCCUCTT against Slc9a9,inactive: -0.123
9,GGGACUGGCAGAUCUUAUCTT against Gtpbp3,inactive: 0.463
10,GGAGCGAUUUGCUGGUGUGTT against Rps16,inactive: -3.43
11,GCCCACCUAAACCAACAGUTT against Dap,inactive: -0.744
12,GGACAACCGAAGUUUUAAUTT against E130308A19Rik,inactive: 1.78
13,CCAGCUGGAAUUCAUGGUCTT against Olfr1307,inactive: -0.32
14,CCAUUGUUUGACUCAAAACTT against Gje1,inactive: 0.0932
15,GGAAGUGUACUUCUACACATT against Gabrq,inactive: -1.79
16,GGAGAAGGGAACCAAUAAGTT against Vgll1,inactive: -0.434
17,UGCAUGGACUUACGAAAGATT against Tas2r115,inactive: 0.564
18,GGUGAGCAAAGAGACAUAUTT against Hivep3,inactive: 0.0613
19,GGACAACAUUCAUUUCUGUTT against MGC29978,inactive: 0.44
20,GGAGACUACCAGAAGGCCUTT against Stip1,inactive: 0.179
21,GGCCUAUUCAAAAAUCAGCTT against E230011A21Rik,inactive: -0.0682
22,GCAAUGUGACCUUUCUUCUTT against Tm7sf3,inactive: 0.626
23,GGAGAGAUGUAGAAUAUGGTT against 9530046H09Rik,inactive: 2.3
24,GGGUUGUUCCAAAUGCUAGTT against Skp1a,inactive: -0.693
25,CCACUUACAUGUCAGAUUATT against Slc30a6,inactive: 1.24
26,GCGCGUUCCUGAUGUUUACTT against AI849156,inactive: -1.08
